Consider two substances from PMC6131509.

Protein sequences, listed by entry. Tags and fused reporters are not part of them. Lines headed by an entry give the natural chain unless they say otherwise; changes in a name come on top. Chains listed by the source or under a name are the forms on record and can include a tag or linker.
UniProt B2RWS6: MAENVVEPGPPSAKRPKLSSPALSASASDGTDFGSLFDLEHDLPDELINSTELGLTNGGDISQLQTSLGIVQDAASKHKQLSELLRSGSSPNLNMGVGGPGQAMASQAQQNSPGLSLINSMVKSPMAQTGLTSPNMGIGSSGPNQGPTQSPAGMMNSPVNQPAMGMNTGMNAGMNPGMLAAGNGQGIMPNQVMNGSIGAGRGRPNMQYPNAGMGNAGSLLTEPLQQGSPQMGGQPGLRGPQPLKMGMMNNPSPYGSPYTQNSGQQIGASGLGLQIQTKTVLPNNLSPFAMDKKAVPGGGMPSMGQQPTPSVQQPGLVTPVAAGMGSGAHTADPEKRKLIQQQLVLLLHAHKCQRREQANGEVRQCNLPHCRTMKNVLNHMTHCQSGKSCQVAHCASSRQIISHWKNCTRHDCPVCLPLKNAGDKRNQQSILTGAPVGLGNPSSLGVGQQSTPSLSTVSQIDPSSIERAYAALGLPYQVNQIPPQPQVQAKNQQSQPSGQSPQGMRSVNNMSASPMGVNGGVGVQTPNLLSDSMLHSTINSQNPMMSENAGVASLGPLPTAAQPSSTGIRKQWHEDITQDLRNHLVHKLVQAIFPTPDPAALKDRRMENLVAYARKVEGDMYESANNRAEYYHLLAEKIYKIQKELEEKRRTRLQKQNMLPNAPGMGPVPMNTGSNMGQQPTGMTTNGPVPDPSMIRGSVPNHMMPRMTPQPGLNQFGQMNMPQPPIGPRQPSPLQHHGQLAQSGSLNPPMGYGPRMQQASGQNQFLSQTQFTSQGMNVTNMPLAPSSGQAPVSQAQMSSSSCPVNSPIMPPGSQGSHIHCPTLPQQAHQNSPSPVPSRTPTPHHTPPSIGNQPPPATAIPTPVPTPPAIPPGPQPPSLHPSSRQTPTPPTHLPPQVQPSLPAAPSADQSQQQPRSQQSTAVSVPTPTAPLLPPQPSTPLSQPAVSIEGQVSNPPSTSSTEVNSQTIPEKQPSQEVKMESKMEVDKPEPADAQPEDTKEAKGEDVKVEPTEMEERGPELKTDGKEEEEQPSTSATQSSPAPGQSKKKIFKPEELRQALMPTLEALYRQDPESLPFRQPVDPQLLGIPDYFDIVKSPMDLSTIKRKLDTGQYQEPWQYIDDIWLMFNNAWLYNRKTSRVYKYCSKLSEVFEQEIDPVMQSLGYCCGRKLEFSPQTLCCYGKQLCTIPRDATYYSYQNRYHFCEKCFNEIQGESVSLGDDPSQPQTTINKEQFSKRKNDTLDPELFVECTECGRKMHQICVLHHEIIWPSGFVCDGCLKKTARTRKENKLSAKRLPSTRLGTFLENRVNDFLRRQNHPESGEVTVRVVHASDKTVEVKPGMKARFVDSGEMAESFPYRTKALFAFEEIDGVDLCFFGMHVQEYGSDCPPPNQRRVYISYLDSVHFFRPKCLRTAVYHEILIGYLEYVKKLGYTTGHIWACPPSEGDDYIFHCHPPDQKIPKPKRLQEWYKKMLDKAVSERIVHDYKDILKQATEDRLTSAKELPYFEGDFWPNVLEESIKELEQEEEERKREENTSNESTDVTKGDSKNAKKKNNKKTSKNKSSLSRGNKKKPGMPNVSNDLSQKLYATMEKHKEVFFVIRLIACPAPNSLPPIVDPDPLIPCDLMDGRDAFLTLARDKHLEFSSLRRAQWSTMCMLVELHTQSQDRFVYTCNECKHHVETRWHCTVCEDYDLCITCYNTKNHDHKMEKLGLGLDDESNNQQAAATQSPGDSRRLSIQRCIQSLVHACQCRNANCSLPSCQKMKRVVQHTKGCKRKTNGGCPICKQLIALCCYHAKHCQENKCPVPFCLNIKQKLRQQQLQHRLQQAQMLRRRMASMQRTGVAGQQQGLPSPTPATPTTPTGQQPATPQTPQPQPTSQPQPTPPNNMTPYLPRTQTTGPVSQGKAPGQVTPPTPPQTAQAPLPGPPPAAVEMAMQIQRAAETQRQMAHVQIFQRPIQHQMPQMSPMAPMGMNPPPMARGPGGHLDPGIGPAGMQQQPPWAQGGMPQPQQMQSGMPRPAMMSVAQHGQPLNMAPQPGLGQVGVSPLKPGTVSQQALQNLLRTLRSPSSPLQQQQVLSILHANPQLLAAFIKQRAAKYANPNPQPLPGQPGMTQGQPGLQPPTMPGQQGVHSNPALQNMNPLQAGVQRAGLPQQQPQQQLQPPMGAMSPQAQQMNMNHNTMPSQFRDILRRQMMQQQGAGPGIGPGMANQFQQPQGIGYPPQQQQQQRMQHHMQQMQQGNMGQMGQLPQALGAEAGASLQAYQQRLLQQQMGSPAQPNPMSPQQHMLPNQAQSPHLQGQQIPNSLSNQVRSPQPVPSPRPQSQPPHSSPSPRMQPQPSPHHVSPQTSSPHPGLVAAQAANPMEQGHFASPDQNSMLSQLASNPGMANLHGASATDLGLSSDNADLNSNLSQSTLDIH
pS133-CREB (CREB phosphorylated at Ser133) (Q01147-1, form named): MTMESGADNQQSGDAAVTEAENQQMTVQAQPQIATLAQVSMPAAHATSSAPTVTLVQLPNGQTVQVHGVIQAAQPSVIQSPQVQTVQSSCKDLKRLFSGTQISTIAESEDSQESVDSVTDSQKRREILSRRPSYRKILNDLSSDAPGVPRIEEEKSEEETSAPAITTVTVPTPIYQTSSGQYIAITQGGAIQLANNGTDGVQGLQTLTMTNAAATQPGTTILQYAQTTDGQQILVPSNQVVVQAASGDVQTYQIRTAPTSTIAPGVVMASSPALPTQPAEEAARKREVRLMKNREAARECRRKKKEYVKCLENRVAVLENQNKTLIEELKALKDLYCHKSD

These are yes or no findings as the source states them, for the method shown. Binding seen in cells or lysates may run through a third protein. Some results given as binding are weak or reduced against the parent protein; the word gives no strength.

Assay [1] addresses p300G422S (phosphorylation-competent knock-in p300) (mouse (endogenous in hippocampus)) (UniProt B2RWS6). As to the kind of experiment: co-IP; 1 mg hippocampal lysate (3- and 6-month WT, p300G422S-KI and C57B6 mice) with 3 ug anti-p300 antibody and protein A magnetic beads, 4 °C overnight; lysis buffer 25 mM Tris pH 7.4, 10 mM NaCl, 2 mM EDTA, 1 mM EGTA, 0.5% Triton, 10% glycerol; beads rinsed 3 times; blotted for CREB, pS133-CREB or aPKC.

The target of assay [2] is p300 (wild type) (mouse (endogenous in hippocampus)) (UniProt B2RWS6). The assay is described as above.

Take CREB (from UniProt Q01147-1 1-341): the binding result in assay [1] and in assay [2] was “binds” throughout.
Take “pS133-CREB (CREB phosphorylated at Ser133) (from UniProt Q01147-1 1-341)”: the binding result in assay [2] is recorded as “binds”.
